{"sequences": {"note": "Amino acid sequences for entries named in this document (tags omitted).", "UniProt Q0JBA9, entry or part of it": "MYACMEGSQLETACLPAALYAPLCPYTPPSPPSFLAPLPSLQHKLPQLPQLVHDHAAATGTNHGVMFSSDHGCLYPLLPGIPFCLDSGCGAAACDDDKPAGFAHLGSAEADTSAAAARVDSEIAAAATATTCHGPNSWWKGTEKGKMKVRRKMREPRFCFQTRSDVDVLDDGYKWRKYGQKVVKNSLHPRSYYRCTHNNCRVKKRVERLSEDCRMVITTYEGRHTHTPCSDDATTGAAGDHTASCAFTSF"}, "source": "paper PMC7819943", "about": "“Rice protein-binding microarrays: a tool to detect cis-acting elements near promoter regions in rice”", "note": "The other results are listed elsewhere or left out."}
{"target": "OsWRKY34 (Oryza sativa, UniProt Q0JBA9 1-250)", "assay": "protein-binding microarray (RPBM); PBS, 2% BSA, 51.3 ng/ul salmon testes DNA, 50 uM zinc acetate, 200 nM TF, 25 C, 1 h; high values mean tight binding", "conditions": "protein: recombinant; tags: N-terminal polyhistidine and DsRed monomer fusion (pET32a); label: CyDye5-dUTP incorporated in the synthesized complementary strand; 3' TTTTT single-stranded linker to array surface; dsDNA, one strand shown", "how_it_was_run": "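Binding signal is reported as fluorescence intensity per feature (arbitrary units) from an Axon 4000B scanner. Incubation used 200 nM of each Ni–NTA-purified, N-terminally polyhistidine- and DsRed-fused transcription factor from E. coli BL21-CodonPlus on a double-stranded custom Agilent array for 1 h at 25 °C, with 50 µM zinc acetate in the buffer, followed by washing.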"}
{"sequence": "CCCAGCAGTTTCTTCACTATCGCGTATCTCACACCAAAAACGGAGTCACCTAGTGCAG", "binding signal": "9420 fluorescence intensity (a.u.)"}
{"sequence": "AATAAGACGAACGGTCAAACATATTTAAAAAAGTCAACGGCGGAGTCACCTAGTGCAG", "binding signal": "9950 fluorescence intensity (a.u.)"}
{"sequence": "CCTCCACTCACAGAGCCAACGAGAGCTCGCCTACATAAACCGGAGTCACCTAGTGCAG", "binding signal": "8300 fluorescence intensity (a.u.)"}
{"sequence": "AATTAATCATGCGTTAATGGACCGTTCCGTTTTCCGTGTTCGGAGTCACCTAGTGCAG", "binding signal": "8920 fluorescence intensity (a.u.)"}
{"sequence": "ACGTAACCTTACTTTCCATCCATTATTGCCCTTGACAGTTCGGAGTCACCTAGTGCAG", "binding signal": "13800 fluorescence intensity (a.u.)"}
{"sequence": "GTTTTCTTTGTTGTCATCATCCTTGCTGGACTCGTCCTTACGGAGTCACCTAGTGCAG", "binding signal": "9500 fluorescence intensity (a.u.)"}
{"sequence": "CTGCAACTGTAAGCTTTTCCCACCATTTGCACGCTTCCCACGGAGTCACCTAGTGCAG", "binding signal": "8300 fluorescence intensity (a.u.)"}
{"sequence": "TAGTAGTAGAGCAGTAGTAGCAGTGTTGTTTTCTTCATCTCGGAGTCACCTAGTGCAG", "binding signal": "8590 fluorescence intensity (a.u.)"}
{"sequence": "GGAGGCGGCGGCGACGAGGAGGGGCGTGGGCGGCGGCGGCCGGAGTCACCTAGTGCAG", "binding signal": "8760 fluorescence intensity (a.u.)"}
{"sequence": "ATCGAGATAGATGCCACTCAACGCACACCATGCACCGTACCGGAGTCACCTAGTGCAG", "binding signal": "8530 fluorescence intensity (a.u.)"}
{"sequence": "TTCCCAGACTTCACCAAATCCTAGATCTACTCCTCTTCCTCGGAGTCACCTAGTGCAG", "binding signal": "8790 fluorescence intensity (a.u.)"}
{"sequence": "AAACAGAGGTTTTTCTCCTGTACATGTGTCCCATGCCAACCGGAGTCACCTAGTGCAG", "binding signal": "9880 fluorescence intensity (a.u.)"}
{"sequence": "TACTTCGCATCATACCTCGCCCTTTTAACCTTCACTGCTACGGAGTCACCTAGTGCAG", "binding signal": "10500 fluorescence intensity (a.u.)"}
{"sequence": "CTGGTGGTAGTGTTGGGGCGGGGCCTCGCCCACTTGTTCCCGGAGTCACCTAGTGCAG", "binding signal": "8910 fluorescence intensity (a.u.)"}
{"sequence": "GTTCTTCTGTGCAGTTTAGCCTAAATCTGTTCAGTTTTACCGGAGTCACCTAGTGCAG", "binding signal": "8050 fluorescence intensity (a.u.)"}
{"sequence": "TCATCTTGCTTTCCCCTTCTTCGCCCACGCGGCCGCGGCCCGGAGTCACCTAGTGCAG", "binding signal": "8620 fluorescence intensity (a.u.)"}
{"sequence": "CCTCGACCACCCTCGCCGGAGCCCTCACGACCTCTGCCCTCGGAGTCACCTAGTGCAG", "binding signal": "8050 fluorescence intensity (a.u.)"}
{"sequence": "AGGTTTGCTCCCAAATCTGCACTGGGTCAATGTTTTCTCCCGGAGTCACCTAGTGCAG", "binding signal": "9840 fluorescence intensity (a.u.)"}
{"sequence": "TCTCTTCCGGTCGGAAGCTTGCTTTCCTTTTCTTCTTCTTCGGAGTCACCTAGTGCAG", "binding signal": "8360 fluorescence intensity (a.u.)"}
{"sequence": "GATTCTTCTGTTATTTGTTTGTCCTTCTATCTCCAAATCTCGGAGTCACCTAGTGCAG", "binding signal": "8660 fluorescence intensity (a.u.)"}
{"sequence": "GATTCAATCTTTCGCTATTTTTTTCCTTTCCTCTGAAATTCGGAGTCACCTAGTGCAG", "binding signal": "10500 fluorescence intensity (a.u.)"}
{"sequence": "GCTGCTGGTGAGAGTGGTGATCGCGTACCTTGTGTTTTGCCGGAGTCACCTAGTGCAG", "binding signal": "8110 fluorescence intensity (a.u.)"}
{"sequence": "TTTTGTCCTTCAACCTGTTGAAGTTGTTTTCAGTTGTTCACGGAGTCACCTAGTGCAG", "binding signal": "11600 fluorescence intensity (a.u.)"}
{"sequence": "GTTTTGTATAATTTAGGGGCGGAGATTTTTGGTTTTGTGGCGGAGTCACCTAGTGCAG", "binding signal": "9700 fluorescence intensity (a.u.)"}
{"sequence": "ACTGTTCATCACACTCACACCTGCAGCCAAAAAGCTTGAGCGGAGTCACCTAGTGCAG", "binding signal": "9120 fluorescence intensity (a.u.)"}
{"sequence": "GCTGCCTCTGGTTTGCTCTGCTCTCTACCGGCTTAACCACCGGAGTCACCTAGTGCAG", "binding signal": "9320 fluorescence intensity (a.u.)"}
{"sequence": "AGCATCCAACCGTCCATACCGCTCGTTGCCCTACTCTTTGCGGAGTCACCTAGTGCAG", "binding signal": "8230 fluorescence intensity (a.u.)"}
{"sequence": "GTGTGTGGTGTGGTGGTCCTCGCGCGCAATTGCTTTCCGTCGGAGTCACCTAGTGCAG", "binding signal": "10200 fluorescence intensity (a.u.)"}
{"sequence": "TCTCTCTCTCTCCTCTCTCTCTCTCTCTTCAATCCTTCATCGGAGTCACCTAGTGCAG", "binding signal": "8090 fluorescence intensity (a.u.)"}
{"sequence": "ATTATTTTGTGCATTATTTTGGATTTGTGTTGCGCAGTAGCGGAGTCACCTAGTGCAG", "binding signal": "10400 fluorescence intensity (a.u.)"}
{"sequence": "TAGCTTGTGCGCGTTGTGTTTTGTGCTCTCCTTTTGTCAGCGGAGTCACCTAGTGCAG", "binding signal": "11500 fluorescence intensity (a.u.)"}
{"sequence": "CTTGCCGACGCCCGGTGCCTGCCTCGTCCCGGGTATGTATCGGAGTCACCTAGTGCAG", "binding signal": "8230 fluorescence intensity (a.u.)"}
{"sequence": "TTCCTGTGTTACTTGTATTTTATCTATTGTCTATCTCCTGCGGAGTCACCTAGTGCAG", "binding signal": "8980 fluorescence intensity (a.u.)"}
{"sequence": "TACAGATCTGTAGCCCGCTGCTTTTCTCTCTCTTCCTTTACGGAGTCACCTAGTGCAG", "binding signal": "8100 fluorescence intensity (a.u.)"}
{"sequence": "CCCGTGCCCTATTGCGCTTCCTCGCTTCCATTTGTCAACTCGGAGTCACCTAGTGCAG", "binding signal": "8920 fluorescence intensity (a.u.)"}
{"sequence": "GATTGCCCTCTTTTAAAGTTGCATAGATGTGGTTCTTCCTCGGAGTCACCTAGTGCAG", "binding signal": "8090 fluorescence intensity (a.u.)"}
{"sequence": "GTGGGTGGTGGTTTTTTTTTCCTTTTTCCTGGTTACGACCCGGAGTCACCTAGTGCAG", "binding signal": "23700 fluorescence intensity (a.u.)"}
{"sequence": "GACACGTGTCATCATCCTACCATAGTTGCTACTCCCTATTCGGAGTCACCTAGTGCAG", "binding signal": "8890 fluorescence intensity (a.u.)"}
{"sequence": "AGTGTCTCATCCATTTCACAGTTATTTCGTGCTCACTTATCGGAGTCACCTAGTGCAG", "binding signal": "12300 fluorescence intensity (a.u.)"}
{"sequence": "TTATCAAATATTCCATCCGTCTTTTTTGATATTTTAATTTCGGAGTCACCTAGTGCAG", "binding signal": "9840 fluorescence intensity (a.u.)"}
{"sequence": "ATATATATATATATATATATATATATATATATGTAAAATTCGGAGTCACCTAGTGCAG", "binding signal": "11700 fluorescence intensity (a.u.)"}
{"sequence": "TCCCCAATCCCTAAAATCCCCGTACGCCGCCCGCTTCTCTCGGAGTCACCTAGTGCAG", "binding signal": "9000 fluorescence intensity (a.u.)"}
{"sequence": "TCTCCAATCTCCATGGCCTCGACACTGTTCTTCGTTTGCACGGAGTCACCTAGTGCAG", "binding signal": "9650 fluorescence intensity (a.u.)"}
{"sequence": "GCCTCCATCCGGCGAGTCCATTTTTCCCCTTTCCCCTCTCCGGAGTCACCTAGTGCAG", "binding signal": "9380 fluorescence intensity (a.u.)"}
{"sequence": "GCTCCTTGCCATCCACGCATGCACGCGGTTCCGAGCTCGTCGGAGTCACCTAGTGCAG", "binding signal": "8150 fluorescence intensity (a.u.)"}
{"sequence": "CATTGCTCTCAAATCTGGCTCCGTTCATGCCATGCATACTCGGAGTCACCTAGTGCAG", "binding signal": "9970 fluorescence intensity (a.u.)"}
{"sequence": "CTACAAGTCACATATTTCGTCCATTCAAGTTTATTTTTTCCGGAGTCACCTAGTGCAG", "binding signal": "9490 fluorescence intensity (a.u.)"}
{"sequence": "GGGAGGGGAGGACGGCGACGGCGGCGGCGGCGGGGTGTGGCGGAGTCACCTAGTGCAG", "binding signal": "10800 fluorescence intensity (a.u.)"}
{"sequence": "CGACATGTGGCAGGGAGGGTGGTGTTTTTCACGCGCGGTCCGGAGTCACCTAGTGCAG", "binding signal": "9940 fluorescence intensity (a.u.)"}
{"sequence": "ATTTGATTTTCTGTCTTTTCTTCAACTCGATTTTGTTAAACGGAGTCACCTAGTGCAG", "binding signal": "10300 fluorescence intensity (a.u.)"}
{"sequence": "ACCCTTTTACAACTTTTTCATGTCAACACCTGTACAGAAACGGAGTCACCTAGTGCAG", "binding signal": "9280 fluorescence intensity (a.u.)"}
{"sequence": "CAAGACTTTCTGCAATTGCCCTGTACTAATTTTGATCTAACGGAGTCACCTAGTGCAG", "binding signal": "10300 fluorescence intensity (a.u.)"}
{"sequence": "ATCGCTGCCTCCTCCTCTGCTTCGTCGCCGCGGCGGCATCCGGAGTCACCTAGTGCAG", "binding signal": "8970 fluorescence intensity (a.u.)"}
{"sequence": "GCCCACATGTCATCTCTCCTATCTCTCTTCTCTTTCTATCCGGAGTCACCTAGTGCAG", "binding signal": "11300 fluorescence intensity (a.u.)"}
